Measured values published in the supplement of paper PMC7666118.
The list shows a part of the results.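 How the source made its calls: active = dose-dependent thermal stabilisation significant by F-test of dose-response against flat model at 10% FDR; inactive = not significant.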

By UniProt entry, the sequences of proteins in these tests, tags left out. Where a name states a change or a piece, a line headed by the entry shows the natural chain unless it says otherwise.
UniProt Q8TAA3: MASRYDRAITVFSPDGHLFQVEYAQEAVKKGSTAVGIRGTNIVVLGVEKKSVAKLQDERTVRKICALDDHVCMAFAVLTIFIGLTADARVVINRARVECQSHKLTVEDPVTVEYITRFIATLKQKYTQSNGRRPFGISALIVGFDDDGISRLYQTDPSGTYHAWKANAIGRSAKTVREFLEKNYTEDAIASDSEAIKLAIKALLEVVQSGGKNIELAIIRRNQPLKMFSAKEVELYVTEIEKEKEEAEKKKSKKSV
UniProt Q7Z6M1: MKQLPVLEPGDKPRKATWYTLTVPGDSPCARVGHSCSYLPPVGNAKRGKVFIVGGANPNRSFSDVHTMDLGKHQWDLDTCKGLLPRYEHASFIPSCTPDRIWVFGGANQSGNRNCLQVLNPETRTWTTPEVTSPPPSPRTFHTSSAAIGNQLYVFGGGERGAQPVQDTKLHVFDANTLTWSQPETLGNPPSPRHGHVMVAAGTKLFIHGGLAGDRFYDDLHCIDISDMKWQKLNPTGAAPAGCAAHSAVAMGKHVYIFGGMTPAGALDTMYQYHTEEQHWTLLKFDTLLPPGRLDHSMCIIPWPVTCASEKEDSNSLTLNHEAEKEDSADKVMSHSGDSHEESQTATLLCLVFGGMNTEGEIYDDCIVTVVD
UniProt P20962: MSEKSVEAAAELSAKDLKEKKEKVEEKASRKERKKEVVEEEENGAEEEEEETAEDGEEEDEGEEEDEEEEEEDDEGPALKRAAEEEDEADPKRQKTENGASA
UniProt Q9UL46, whole entry: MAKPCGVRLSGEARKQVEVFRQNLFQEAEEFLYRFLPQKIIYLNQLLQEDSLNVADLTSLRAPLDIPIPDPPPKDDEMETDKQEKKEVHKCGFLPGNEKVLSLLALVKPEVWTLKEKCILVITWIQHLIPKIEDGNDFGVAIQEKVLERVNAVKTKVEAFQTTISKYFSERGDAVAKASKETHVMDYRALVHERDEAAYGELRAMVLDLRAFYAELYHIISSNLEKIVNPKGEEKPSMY
UniProt P11908: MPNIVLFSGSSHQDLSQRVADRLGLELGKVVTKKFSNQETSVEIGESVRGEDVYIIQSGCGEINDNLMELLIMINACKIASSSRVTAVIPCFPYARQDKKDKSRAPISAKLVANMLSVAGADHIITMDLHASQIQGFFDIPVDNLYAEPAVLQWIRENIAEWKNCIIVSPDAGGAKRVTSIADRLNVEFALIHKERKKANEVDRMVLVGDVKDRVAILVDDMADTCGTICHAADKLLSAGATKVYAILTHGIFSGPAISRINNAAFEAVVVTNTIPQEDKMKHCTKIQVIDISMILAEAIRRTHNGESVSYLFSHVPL
UniProt P20936: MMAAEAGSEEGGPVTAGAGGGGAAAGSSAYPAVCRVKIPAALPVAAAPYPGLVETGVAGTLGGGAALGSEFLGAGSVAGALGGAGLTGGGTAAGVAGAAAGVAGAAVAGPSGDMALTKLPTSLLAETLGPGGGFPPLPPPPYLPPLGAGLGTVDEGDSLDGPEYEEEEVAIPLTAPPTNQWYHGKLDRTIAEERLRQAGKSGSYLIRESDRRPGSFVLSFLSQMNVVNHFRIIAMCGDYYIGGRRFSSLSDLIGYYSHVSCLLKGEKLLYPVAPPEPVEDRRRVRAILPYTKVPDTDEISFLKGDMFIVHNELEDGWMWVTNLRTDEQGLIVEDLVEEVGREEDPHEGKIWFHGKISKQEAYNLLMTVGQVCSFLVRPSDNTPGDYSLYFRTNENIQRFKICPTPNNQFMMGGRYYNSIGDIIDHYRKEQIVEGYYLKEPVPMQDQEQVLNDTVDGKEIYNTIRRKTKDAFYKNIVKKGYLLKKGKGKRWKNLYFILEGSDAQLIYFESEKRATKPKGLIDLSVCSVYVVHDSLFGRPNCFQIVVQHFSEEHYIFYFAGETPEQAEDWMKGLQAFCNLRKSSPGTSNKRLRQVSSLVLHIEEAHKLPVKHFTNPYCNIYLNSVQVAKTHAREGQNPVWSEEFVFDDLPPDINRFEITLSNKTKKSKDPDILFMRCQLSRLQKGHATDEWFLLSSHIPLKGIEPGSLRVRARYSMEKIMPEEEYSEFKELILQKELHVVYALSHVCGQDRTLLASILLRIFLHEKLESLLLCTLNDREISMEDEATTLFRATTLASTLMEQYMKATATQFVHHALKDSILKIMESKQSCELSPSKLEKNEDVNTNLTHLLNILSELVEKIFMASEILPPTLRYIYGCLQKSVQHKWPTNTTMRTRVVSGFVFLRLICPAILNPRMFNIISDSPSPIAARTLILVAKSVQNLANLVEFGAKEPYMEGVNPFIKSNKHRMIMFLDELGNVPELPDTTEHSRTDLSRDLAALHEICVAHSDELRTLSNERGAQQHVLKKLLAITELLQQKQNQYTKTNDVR
UniProt Q15032: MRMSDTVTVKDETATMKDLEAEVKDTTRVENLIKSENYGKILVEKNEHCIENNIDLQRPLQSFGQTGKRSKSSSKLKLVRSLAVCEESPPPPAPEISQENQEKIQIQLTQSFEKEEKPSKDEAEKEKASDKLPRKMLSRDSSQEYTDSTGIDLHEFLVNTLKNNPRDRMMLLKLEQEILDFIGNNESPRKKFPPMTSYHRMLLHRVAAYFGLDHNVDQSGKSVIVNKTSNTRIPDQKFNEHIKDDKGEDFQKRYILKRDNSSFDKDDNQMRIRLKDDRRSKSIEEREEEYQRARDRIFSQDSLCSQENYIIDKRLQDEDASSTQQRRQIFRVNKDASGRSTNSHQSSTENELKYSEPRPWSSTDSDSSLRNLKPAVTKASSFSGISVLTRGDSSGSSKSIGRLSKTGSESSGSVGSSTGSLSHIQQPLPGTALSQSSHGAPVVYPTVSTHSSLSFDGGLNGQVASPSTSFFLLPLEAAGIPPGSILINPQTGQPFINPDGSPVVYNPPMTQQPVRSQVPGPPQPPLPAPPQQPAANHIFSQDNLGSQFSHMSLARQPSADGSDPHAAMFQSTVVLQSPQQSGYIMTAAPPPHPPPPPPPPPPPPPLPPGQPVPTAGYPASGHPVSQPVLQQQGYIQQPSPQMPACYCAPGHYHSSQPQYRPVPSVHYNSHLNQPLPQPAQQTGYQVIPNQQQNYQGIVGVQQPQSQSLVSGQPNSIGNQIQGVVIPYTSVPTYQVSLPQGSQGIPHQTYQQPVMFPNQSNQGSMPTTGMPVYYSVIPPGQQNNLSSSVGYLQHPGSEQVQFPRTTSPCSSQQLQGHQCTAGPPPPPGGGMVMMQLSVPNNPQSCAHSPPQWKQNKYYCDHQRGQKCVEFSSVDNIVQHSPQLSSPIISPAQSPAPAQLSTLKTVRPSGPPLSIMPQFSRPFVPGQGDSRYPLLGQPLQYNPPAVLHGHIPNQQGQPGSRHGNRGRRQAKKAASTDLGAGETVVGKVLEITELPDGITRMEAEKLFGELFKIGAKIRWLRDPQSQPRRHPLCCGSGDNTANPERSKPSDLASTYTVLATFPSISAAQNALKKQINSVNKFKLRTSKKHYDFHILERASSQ
UniProt Q86YV0: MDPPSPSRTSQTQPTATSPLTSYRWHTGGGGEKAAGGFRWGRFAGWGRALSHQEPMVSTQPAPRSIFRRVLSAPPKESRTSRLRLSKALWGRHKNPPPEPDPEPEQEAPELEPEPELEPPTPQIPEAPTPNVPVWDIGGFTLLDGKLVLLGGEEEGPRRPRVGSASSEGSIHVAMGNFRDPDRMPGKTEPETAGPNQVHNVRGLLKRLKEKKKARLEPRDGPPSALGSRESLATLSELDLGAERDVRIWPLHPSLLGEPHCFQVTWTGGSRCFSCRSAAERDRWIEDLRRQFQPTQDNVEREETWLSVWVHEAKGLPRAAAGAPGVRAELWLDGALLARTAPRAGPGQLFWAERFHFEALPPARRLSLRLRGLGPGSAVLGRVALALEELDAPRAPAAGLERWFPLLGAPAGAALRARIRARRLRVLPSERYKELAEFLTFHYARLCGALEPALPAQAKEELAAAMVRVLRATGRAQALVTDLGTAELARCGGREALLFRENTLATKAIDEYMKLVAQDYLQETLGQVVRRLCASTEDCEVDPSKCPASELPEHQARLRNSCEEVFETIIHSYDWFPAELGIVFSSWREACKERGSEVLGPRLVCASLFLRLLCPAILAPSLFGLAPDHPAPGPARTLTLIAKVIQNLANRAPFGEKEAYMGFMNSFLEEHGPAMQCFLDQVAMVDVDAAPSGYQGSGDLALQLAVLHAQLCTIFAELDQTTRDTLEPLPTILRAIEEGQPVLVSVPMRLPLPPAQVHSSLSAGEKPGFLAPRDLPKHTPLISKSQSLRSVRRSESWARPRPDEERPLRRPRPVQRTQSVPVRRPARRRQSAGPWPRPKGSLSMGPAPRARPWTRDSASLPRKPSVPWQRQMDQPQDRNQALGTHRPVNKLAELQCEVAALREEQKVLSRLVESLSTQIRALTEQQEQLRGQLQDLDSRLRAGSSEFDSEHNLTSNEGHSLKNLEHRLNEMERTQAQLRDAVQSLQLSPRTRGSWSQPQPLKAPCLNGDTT
UniProt Q7Z5J4: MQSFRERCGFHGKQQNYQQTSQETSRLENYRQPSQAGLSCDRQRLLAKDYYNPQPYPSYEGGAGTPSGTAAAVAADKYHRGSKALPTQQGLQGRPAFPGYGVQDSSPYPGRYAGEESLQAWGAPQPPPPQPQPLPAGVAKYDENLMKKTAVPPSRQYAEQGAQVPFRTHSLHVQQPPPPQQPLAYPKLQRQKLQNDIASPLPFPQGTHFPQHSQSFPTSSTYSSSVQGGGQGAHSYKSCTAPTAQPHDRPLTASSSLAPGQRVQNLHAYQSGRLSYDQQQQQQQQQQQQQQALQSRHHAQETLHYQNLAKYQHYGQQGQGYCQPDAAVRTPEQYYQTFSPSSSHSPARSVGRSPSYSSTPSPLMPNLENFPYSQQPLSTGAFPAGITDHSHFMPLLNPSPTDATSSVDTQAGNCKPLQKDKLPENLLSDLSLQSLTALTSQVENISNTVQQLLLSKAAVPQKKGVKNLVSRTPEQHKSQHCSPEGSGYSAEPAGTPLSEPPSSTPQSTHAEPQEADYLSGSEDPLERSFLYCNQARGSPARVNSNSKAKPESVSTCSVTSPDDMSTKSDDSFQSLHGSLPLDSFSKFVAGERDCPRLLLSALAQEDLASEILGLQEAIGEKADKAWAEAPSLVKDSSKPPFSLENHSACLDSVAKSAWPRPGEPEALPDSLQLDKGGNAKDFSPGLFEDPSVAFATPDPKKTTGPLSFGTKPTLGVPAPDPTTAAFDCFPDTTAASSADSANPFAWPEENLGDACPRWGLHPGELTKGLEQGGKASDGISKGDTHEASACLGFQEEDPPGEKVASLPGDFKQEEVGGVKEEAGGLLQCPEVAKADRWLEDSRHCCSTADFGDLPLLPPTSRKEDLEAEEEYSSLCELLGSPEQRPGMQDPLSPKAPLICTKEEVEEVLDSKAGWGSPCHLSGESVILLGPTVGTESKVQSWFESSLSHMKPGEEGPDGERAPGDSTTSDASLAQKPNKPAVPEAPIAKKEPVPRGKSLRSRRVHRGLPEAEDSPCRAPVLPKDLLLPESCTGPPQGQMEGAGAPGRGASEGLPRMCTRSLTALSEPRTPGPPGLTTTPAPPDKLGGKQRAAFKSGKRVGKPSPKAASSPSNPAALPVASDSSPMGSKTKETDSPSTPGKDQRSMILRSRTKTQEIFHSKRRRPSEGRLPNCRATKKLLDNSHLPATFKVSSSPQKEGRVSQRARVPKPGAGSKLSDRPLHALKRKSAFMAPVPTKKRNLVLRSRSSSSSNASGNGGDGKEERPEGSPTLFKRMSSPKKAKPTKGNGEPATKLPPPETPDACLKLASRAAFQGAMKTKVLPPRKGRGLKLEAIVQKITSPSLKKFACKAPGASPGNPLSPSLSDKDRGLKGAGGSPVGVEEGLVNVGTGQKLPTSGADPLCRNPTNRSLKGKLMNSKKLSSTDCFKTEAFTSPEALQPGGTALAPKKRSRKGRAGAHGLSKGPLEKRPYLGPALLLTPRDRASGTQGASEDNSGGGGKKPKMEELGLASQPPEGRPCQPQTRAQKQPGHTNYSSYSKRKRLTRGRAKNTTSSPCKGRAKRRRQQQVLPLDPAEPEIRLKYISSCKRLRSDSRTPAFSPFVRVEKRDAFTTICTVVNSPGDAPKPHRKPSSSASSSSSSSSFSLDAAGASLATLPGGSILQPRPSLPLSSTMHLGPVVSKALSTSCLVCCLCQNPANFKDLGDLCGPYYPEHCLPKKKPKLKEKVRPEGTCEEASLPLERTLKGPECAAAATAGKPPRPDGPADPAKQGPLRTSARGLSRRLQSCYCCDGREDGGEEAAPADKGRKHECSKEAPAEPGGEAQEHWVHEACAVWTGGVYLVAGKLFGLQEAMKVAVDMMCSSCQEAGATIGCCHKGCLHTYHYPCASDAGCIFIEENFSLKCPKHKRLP
UniProt Q9UL25: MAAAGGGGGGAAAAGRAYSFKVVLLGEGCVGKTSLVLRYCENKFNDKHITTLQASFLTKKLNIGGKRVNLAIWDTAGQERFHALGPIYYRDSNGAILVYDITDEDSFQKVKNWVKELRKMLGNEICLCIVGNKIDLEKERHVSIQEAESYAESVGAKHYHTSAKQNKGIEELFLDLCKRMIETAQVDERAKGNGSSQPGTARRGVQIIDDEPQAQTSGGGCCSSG

compound: Nc1nc2c(ncn2[C@@H]2O[C@H](COP(=O)(O)OP(=O)(O)OP(=O)(O)O)[C@@H](O)[C@H]2O)c(=O)[nH]1; test: dose-dependent thermal stabilisation call (2D-TPP, DLPTP, 10% FDR) (binary (1 = stabilised)); higher = stabilised by the compound; conditions: system: Jurkat gel-filtered lysate; concentration range 1-500 µM

Row | Target | dose-dependent thermal stabilisation call
1 | PXK (UniProt Q7Z7A4) | active: 1
2 | RBM5 (UniProt P52756) | inactive: 0
3 | PSMA8 (UniProt Q8TAA3) | inactive: 0
4 | RBCK1 (UniProt Q9BYM8) | inactive: 0
5 | RABEPK (UniProt Q7Z6M1) | inactive: 0
6 | RAB5A (UniProt P20339) | inactive: 0
7 | RAE1 (UniProt P78406) | inactive: 0
8 | RANBP10 (UniProt Q6VN20) | inactive: 0
9 | PRKCA (UniProt P17252) | active: 1
10 | PSMG4 (UniProt Q5JS54) | inactive: 0
11 | PSMD1 (UniProt Q99460) | active: 1
12 | PTMS (UniProt P20962) | inactive: 0
13 | PSME2 (UniProt Q9UL46) | inactive: 0
14 | PRPS2 (UniProt P11908) | inactive: 0
15 | RASA1 (UniProt P20936) | inactive: 0
16 | R3HDM1 (UniProt Q15032) | inactive: 0
17 | PSMA2 (UniProt P25787) | inactive: 0
18 | UniProt Q6ZSR9 | inactive: 0
19 | RBM27 (UniProt Q9P2N5) | inactive: 0
20 | RAB14 (UniProt P61106) | active: 1
21 | RAD51 (UniProt Q06609) | active: 1
22 | PRPF3 (UniProt O43395) | inactive: 0
23 | RASAL3 (UniProt Q86YV0) | inactive: 0
24 | RAI1 (UniProt Q7Z5J4) | inactive: 0
25 | RAB21 (UniProt Q9UL25) | active: 1
26 | RAPGEF6 (UniProt Q8TEU7) | inactive: 0
27 | RCC2 (UniProt Q9P258) | inactive: 0
28 | PURB (UniProt Q96QR8) | inactive: 0

Single values from the entries so far.
In dose-dependent thermal stabilisation call, UniProt Q6ZSR9 is entered as inactive: 0
In dose-dependent thermal stabilisation call, RASA1 (UniProt P20936) is entered as inactive: 0
